From patent US11932672B2, “Fermentation process” (Syngulon S.A., priority 2017, dated 2024)
Some results were stated once for a whole list of compounds, not compound by compound.

Assay: Storage stability of bacteriocin activity in supernatant and in Petri plates containing medium
Assay type: physicochemical
Details: for storage time without decrease of bacteriocin activity: Petri plates containing medium stored at +4° C.; for storage time without significant decrease of bacteriocin activity: supernatant stored at −20° C.

B1: B17: bacteriocin, amino acid sequence SEQ ID NO: 198, produced by fermentation in E. coli C600 (protein, listed as Escherichia coli)
chain: MELKASEFGVVLSVDALKLSRQSPLGVGIGGGGGGGGGGSCGGQGGGCGGCSNGCSGGNGGSGGSGSHI
storage time without decrease of bacteriocin activity: at least 4 weeks | storage time without significant decrease of bacteriocin activity: at least 12 months

B2: ColV: bacteriocin, amino acid sequence SEQ ID NO: 64, produced from vector pUC-ColV (protein, listed as Escherichia coli)
chain: MRTLTLNELDSVSGGASGRDIAMAIGTLSGQFVAGGIGAAAGGVAGGAIYDYASTHKPNPAMSPSGLGGTIKQKPEGIPSEAWNYAAGRLCNWSPNNLSDVCL
storage time without decrease of bacteriocin activity: at least 4 weeks | storage time without significant decrease of bacteriocin activity: at least 12 months
